## Results from one PubChem assay

The results are deposited in PubChem (AID1745848; NCATS, 2022).

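HEK-293 cells carrying an ATXN2-luciferase reporter; luminescence signal loss after 24 h of compound exposure, with a parallel cell viability readout.
Compounds were tested as a dilution series from about 0.0037 to 57 µM.
The number is the fitted half-maximal inhibitory concentration (AC50); a lower value means a more potent inhibitor.
Calls come from curve class and activity score: actives score 40–100, while inconclusive compounds (weak, partial, poorly fitted or single-point curves) score 1–39.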

Values are in nM.
All entries here are filed as inconclusive.
These entries are mostly ones the record files as inconclusive; other results of the assay are not listed here.
A potency from a partial, single-point or poor curve is only a rough figure.
Activity scores are not listed here.

| compound | Potency (nM) | curve as filed |
|---|---|---|
| `N=c1c2c(n(Cc3cccc(Cl)c3)c3c1CCC3)CCCC2` | 10000 | inhibitor, partial curve, poor fit |
| `CCCCC(=O)N(C)c1c(CC)nc2c(OCc3ccc(Cl)cc3Cl)cccn12` | 2818 | inhibitor, partial curve, poor fit |
| `CCC(=O)NNC(=S)NC(=O)c1ccc(C)cc1` | 17782 | inhibitor, partial curve, poor fit |
| `NC(Cc1ccc(Cl)cc1)c1csc(Nc2cc(NCCCO)ncn2)n1` (centres undefined) | 25118 | inhibitor, single point |
| `Cc1ccc(S(=O)(=O)N(C)C)cc1NC(=O)c1cncc(Br)c1` | 15848 | inhibitor, partial curve, poor fit |
| `O=C(NCc1ccccc1Cl)C1CCCN(C(=O)Nc2ccc(F)cc2)C1` (centres undefined) | 15848 | inhibitor, partial curve, poor fit |
| `CCCOc1ccccc1C1NC(=O)NC(C)=C1C(=O)OCc1ccccc1` (centres undefined) | 4467 | inhibitor, partial curve, poor fit |
| `CC(C)N(Cc1ccccc1)C(=O)/C=C/c1ccccc1[N+](=O)[O-]` | 19952 | inhibitor, single point |
| `O=C(NNC(=O)c1csc(-c2cnccc2C(F)(F)F)n1)c1ccc(C(F)(F)F)cc1` | 3162 | inhibitor, partial curve |
| `Nc1cc2c3c(cccc3c1)C(=O)N(CCN1CCCC1)C2=O` | 39810 | inhibitor, single point |
| `Cc1ccc(NC(=O)CNC(=O)c2cccc(Cl)c2)nc1` | 35481 | inhibitor, single point |
| `Cc1cc(C)nc(/N=C(\N)Nc2ccc(OCc3ccccc3)cc2)n1` | 15848 | inhibitor, partial curve, poor fit |
| `COc1ccc(NC(=O)c2oc3ccc(S(=O)(=O)N4CCC5(CC4)OCCO5)cc3c2C)cc1` | 3162 | inhibitor, single point |
| `Cc1cccn2c(=O)c(/C=C(\C#N)C(N)=O)c(N3CCN(c4cccc(Cl)c4)CC3)nc12` | 35481 | inhibitor, single point |
| `Cc1ccc(OCC(=O)N/N=C/c2cccc3cccnc23)cc1` | 25118 | inhibitor, partial curve, poor fit |
| `OCCN1CCN(c2nc(-c3ccccc3O)nc3ccccc23)CC1` | 25118 | inhibitor, partial curve, poor fit |
| `CS(=O)(=O)N1CCc2cc(-c3csc(NC(=O)Cc4cccs4)n3)ccc21` | 3548 | inhibitor, partial curve |
| `COc1cc(/C=C/C(=O)c2ccc(C)c([N+](=O)[O-])c2)cc(OC)c1O` | 25118 | inhibitor, single point |
| `COc1cc2c(ccc3c4cc(OC)c(OC)cc4c[n+](C)c23)cc1O` | 6310 | inhibitor, partial curve, poor fit |
| `NC(N)=N/N=C/c1ccc(Cl)c(Cl)c1` | 31622 | inhibitor, single point |
| `CC(=O)Nc1cccc(-c2ccnc3c2CC(C)(C(=O)Nc2ccc(F)c(Cl)c2)O3)c1` (centres undefined) | 19952 | inhibitor, partial curve, poor fit |
| `O=C(NCCc1ccccc1)c1ccc2nccnc2c1` | 2512 | inhibitor, single point |
| `CN(C)CCCN(C(=O)CCc1ccccc1)c1nc2ccc(Br)cc2s1` | 17782 | inhibitor, partial curve, poor fit |
| `Cc1ccccc1NC(=O)Nc1nc(C(N)C2CCCCC2)cs1` (centres undefined) | 28183 | inhibitor, partial curve, poor fit |
| `O=C(c1ccco1)N1CCN(c2ncnc3c2[nH]c2ccc(Br)cc23)CC1` | 28183 | inhibitor, partial curve, poor fit |
| `CC(Sc1nnc2c(n1)[nH]c1ccccc12)C(=O)N(C)C1CCCCC1` (centres undefined) | 15848 | inhibitor, partial curve, poor fit |
| `NC(=S)n1[nH]c(-c2ccc([N+](=O)[O-])cc2)c(N=Nc2cccc(Cl)c2)c1=O` | 5012 | inhibitor, partial curve, poor fit |
| `CCOC(=O)/C=C/C(=O)Nc1ccc(Oc2ccccc2)cc1` | 2818 | inhibitor, partial curve, poor fit |
| `O=C(Nc1ccc(Cl)c(Cl)c1)c1cccc(S(=O)(=O)NCc2cccnc2)c1` | 5012 | inhibitor, partial curve, poor fit |
| `CN(C)CCNc1ncnc2c1ncn2[C@H]1CN(Cc2ccc(-c3ccccc3)cc2)C[C@@H](CO)O1` | 39810 | inhibitor, single point |
| `COc1ccc(-c2n(CC(=O)OC3CC(C)CCC3C(C)C)c3ccccc3[n+]2C)cc1` (centres undefined) | 8912 | inhibitor, partial curve, poor fit |
| `C#CCCC[C@@H]1OC(=O)CNC(=O)C([C@@H](C)CC)NC(=O)[C@@H]2CCCN2C(=O)C([C@@H](C)CC)OC(=O)[C@H](Cc2ccccc2)N(C)C(=O)[C@H](C(C)C)NC(=O)C1(C)C` (some centres undefined) | 28183 | inhibitor, single point |
| `Cc1cc(/C=N/n2cnnc2)c(C)n1-c1ccc(OCc2ccc(F)cc2)cc1` | 14125 | inhibitor, partial curve, poor fit |
| `O=C(COc1ccccc1Cl)Nc1ccc(N2CCN(C(=O)c3ccccc3)CC2)cc1` | 7943 | inhibitor, single point |
| `COc1cc(NC(=O)c2cccc3c(-c4cnn(C)c4)coc23)cc(OC)c1OC` | 28183 | inhibitor, partial curve, poor fit |

The last 4 entries again:

compound	Potency (nM)	curve as filed
C#CCCC[C@@H]1OC(=O)CNC(=O)C([C@@H](C)CC)NC(=O)[C@@H]2CCCN2C(=O)C([C@@H](C)CC)OC(=O)[C@H](Cc2ccccc2)N(C)C(=O)[C@H](C(C)C)NC(=O)C1(C)C (some centres undefined)	28183	inhibitor, single point
Cc1cc(/C=N/n2cnnc2)c(C)n1-c1ccc(OCc2ccc(F)cc2)cc1	14125	inhibitor, partial curve, poor fit
O=C(COc1ccccc1Cl)Nc1ccc(N2CCN(C(=O)c3ccccc3)CC2)cc1	7943	inhibitor, single point
COc1cc(NC(=O)c2cccc3c(-c4cnn(C)c4)coc23)cc(OC)c1OC	28183	inhibitor, partial curve, poor fit